{"source": "PubChem BioAssay AID248", "about": "(DTP/NCI, 2004)", "tested_on": "L1210 leukemia ip in BDF1 mice, survival T/C", "experiment": "NCI In Vivo Anticancer Drug Screen. Data for tumor model L1210 Leukemia (intraperitoneal) in B6D2F1 (BDF1) mice", "details": "T/C endpoint: mean survival time, higher T/C = longer survival", "key": {"[1]": {"details": "dose: 400.0 mg/kg/injection, schedule: Q04DX003 (ip), vehicle: saline"}, "[2]": {"details": "dose: 400.0 mg/kg/injection, schedule: Q01DX009 (ip), vehicle: Klucel (hydroxypropylcellulose) (HPC)"}, "[3]": {"details": "dose: 200.0 mg/kg/injection, schedule: Q01DX009 (ip), vehicle: saline with Tween-80"}, "[4]": {"details": "dose: 100.0 mg/kg/injection, schedule: Q04DX003 (ip), vehicle: saline"}, "[5]": {"details": "dose: 200.0 mg/kg/injection, schedule: Q04DX003 (ip), vehicle: saline"}}, "note": "The list shows only some results of the screen, not a fair sample: it gathers tests that were run many times, whatever their T/C, doses with no T/C, and many T/C values between a quarter and a half above the control. Other doses and runs of a compound stand elsewhere. T/C is the treated group as % of the vehicle group. Some entries give survivors of the animals treated and no T/C: the source files T/C as zero there, which appears to mark a toxic dose or a test without result, not a measured value. Some doses without a T/C left all or most animals alive at the check, yet need not have been tolerated: the source hardly ever lists a survival T/C far under the control, and the zero likely stands for such cases as well. Survivors were counted at the toxicity check, usually on the fifth day, unless a day is given; later deaths do not show. Schedules are NCI's codes, read here as Q, the interval in days (D) or hours (H), X, the number of doses. For survival time, this PubChem deposit counts one and a half times the control or more as active, and values a quarter to a half above the control carry no call in these data; other NCI protocols may use other cut-offs."}
{"smiles": "CCCCC[n+]1ccc(C(N)=O)cc1", "values": [{"measurement": "survivor count", "setting": "[1]", "value": "4 of 6"}]}
{"smiles": "CCCCCCCC(C)NCCO", "note": "(configuration not stated)", "values": [{"measurement": "survivor count", "setting": "dose: 150.0 mg/kg/injection, schedule: Q01DX001 (ip), vehicle: carboxymethylcellulose (CMC)", "value": "3 of 6"}, {"measurement": "survivor count", "setting": "dose: 300.0 mg/kg/injection, schedule: Q01DX001 (ip), vehicle: carboxymethylcellulose (CMC)", "value": "0 of 6"}]}
{"smiles": "O=C(O)c1ccc(Cl)o1", "values": [{"measurement": "survivor count", "setting": "[2]", "value": "6 of 6"}]}
{"smiles": "CCC[n+]1c(C)oc2ccc(-c3ccccc3)cc21", "values": [{"measurement": "survivor count", "setting": "[3]", "value": "6 of 6"}]}
{"smiles": "CC1(CCl)OCCO1", "values": [{"measurement": "survivor count", "setting": "[2]", "value": "5 of 6"}]}
{"smiles": "CC(C)(CN=Cc1cccc(O)c1)N=Cc1cccc(O)c1", "values": [{"measurement": "survivor count", "setting": "dose: 300.0 mg/kg/injection, schedule: Q01DX009 (ip), vehicle: DMSO", "value": "2 of 6"}]}
{"smiles": "Cc1cc(C)c(CN)cc1CN", "values": [{"measurement": "survivor count", "setting": "dose: 200.0 mg/kg/injection, schedule: Q04DX003 (ip), vehicle: saline with Tween-80", "value": "2 of 6"}, {"measurement": "survivor count", "setting": "dose: 400.0 mg/kg/injection, schedule: Q04DX003 (ip), vehicle: saline with Tween-80", "value": "1 of 6"}]}
{"smiles": "Brc1ccccc1C[n+]1ccc2ccccc2c1", "values": [{"measurement": "survivor count", "setting": "dose: 75.0 mg/kg/injection, schedule: Q01DX001 (ip), vehicle: other", "value": "0 of 6"}, {"measurement": "survivor count", "setting": "dose: 150.0 mg/kg/injection, schedule: Q01DX001 (ip), vehicle: other", "value": "0 of 6"}, {"measurement": "survivor count", "setting": "dose: 300.0 mg/kg/injection, schedule: Q01DX001 (ip), vehicle: other", "value": "0 of 6"}]}
{"smiles": "CC1CC([P+](c2ccccc2)(c2ccccc2)c2ccccc2)=NN1", "note": "(configuration not stated)", "values": [{"measurement": "survivor count", "setting": "[4]", "value": "4 of 6"}, {"measurement": "survivor count", "setting": "[5]", "value": "0 of 6"}, {"measurement": "survivor count", "setting": "[1]", "value": "0 of 6"}]}
{"smiles": "CC(=O)c1ccc(OC(=O)Nc2ccccc2F)cc1", "values": [{"measurement": "survivor count", "setting": "[3]", "value": "0 of 6"}, {"measurement": "survivor count", "setting": "dose: 400.0 mg/kg/injection, schedule: Q01DX009 (ip), vehicle: saline with Tween-80", "value": "0 of 6"}]}
{"smiles": "C[N+](C)(C)C1CC1", "values": [{"measurement": "survivor count", "setting": "dose: 100.0 mg/kg/injection, schedule: Q01DX009 (ip), vehicle: saline", "value": "0 of 6"}, {"measurement": "survivor count", "setting": "[4]", "value": "3 of 6"}, {"measurement": "survivor count", "setting": "dose: 200.0 mg/kg/injection, schedule: Q01DX009 (ip), vehicle: saline", "value": "0 of 6"}, {"measurement": "survivor count", "setting": "[5]", "value": "0 of 6"}, {"measurement": "survivor count", "setting": "[1]", "value": "0 of 6"}]}
{"smiles": "Oc1c(Br)cc(Br)cc1/C=N/N1CCN(/N=C/c2cc(Br)cc(Br)c2O)CC1", "values": [{"measurement": "survivor count", "setting": "dose: 200.0 mg/kg/injection, schedule: Q01DX001 (ip), vehicle: saline", "value": "4 of 4"}]}
{"smiles": "Nc1ncnc2c1c(-c1ncn[nH]1)cn2C1OC(CO)C(O)C1O", "note": "(configuration not stated)", "values": [{"measurement": "T/C", "setting": "dose: 0.19 mg/kg/injection, schedule: Q01DX005 (ip), vehicle: saline", "value": "131 % of control"}, {"measurement": "T/C", "setting": "dose: 0.39 mg/kg/injection, schedule: Q01DX009 (ip), vehicle: saline", "value": "128 % of control"}, {"measurement": "survivor count", "setting": "dose: 0.78 mg/kg/injection, schedule: Q01DX005 (ip), vehicle: saline", "value": "6 of 6"}, {"measurement": "survivor count", "setting": "dose: 1.56 mg/kg/injection, schedule: Q01DX005 (ip), vehicle: saline", "value": "0 of 6"}, {"measurement": "survivor count", "setting": "dose: 3.12 mg/kg/injection, schedule: Q01DX005 (ip), vehicle: saline", "value": "0 of 6"}, {"measurement": "survivor count", "setting": "dose: 6.25 mg/kg/injection, schedule: Q01DX005 (ip), vehicle: saline", "value": "0 of 6"}, {"measurement": "survivor count", "setting": "dose: 12.5 mg/kg/injection, schedule: Q01DX005 (ip), vehicle: saline", "value": "1 of 6"}, {"measurement": "survivor count", "setting": "dose: 25.0 mg/kg/injection, schedule: Q01DX005 (ip), vehicle: saline", "value": "0 of 6"}, {"measurement": "survivor count", "setting": "dose: 50.0 mg/kg/injection, schedule: Q01DX005 (ip), vehicle: saline", "value": "0 of 6"}]}
{"smiles": "O=NO.O=N[O-].O=N[O-].[Co+3].[NH2-].[NH2-].[NH2-].[NH2-]", "values": [{"measurement": "survivor count", "setting": "dose: 50.0 mg/kg/injection, schedule: Q01DX009 (ip), vehicle: Klucel (hydroxypropylcellulose) (HPC)", "value": "6 of 6"}, {"measurement": "survivor count", "setting": "dose: 100.0 mg/kg/injection, schedule: Q01DX009 (ip), vehicle: Klucel (hydroxypropylcellulose) (HPC)", "value": "1 of 6"}, {"measurement": "survivor count", "setting": "dose: 200.0 mg/kg/injection, schedule: Q01DX009 (ip), vehicle: Klucel (hydroxypropylcellulose) (HPC)", "value": "0 of 6"}, {"measurement": "survivor count", "setting": "dose: 200.0 mg/kg/injection, schedule: Q04DX003 (ip), vehicle: Klucel (hydroxypropylcellulose) (HPC)", "value": "0 of 6"}, {"measurement": "survivor count", "setting": "dose: 400.0 mg/kg/injection, schedule: Q04DX003 (ip), vehicle: Klucel (hydroxypropylcellulose) (HPC)", "value": "0 of 6"}]}
